Experimental data from PMC5031710.

By UniProt entry, the sequences of proteins in these tests, tags left out. Where a name states a change or a piece, a line headed by the entry shows the natural chain unless it says otherwise.
UniProt P67660: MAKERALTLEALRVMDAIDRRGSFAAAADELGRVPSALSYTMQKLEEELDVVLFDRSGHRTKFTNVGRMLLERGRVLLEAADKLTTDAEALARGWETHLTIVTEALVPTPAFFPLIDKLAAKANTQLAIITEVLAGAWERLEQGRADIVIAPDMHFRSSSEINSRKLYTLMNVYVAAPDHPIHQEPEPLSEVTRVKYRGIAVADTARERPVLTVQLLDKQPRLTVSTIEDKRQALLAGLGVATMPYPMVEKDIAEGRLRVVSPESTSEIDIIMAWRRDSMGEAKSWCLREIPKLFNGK

Target: YhaJ (UniProt P67660)
Test: EMSA
Settings: 0.5 uM YhaJ, shift reduced by 20x specific, not by kan competitor, DIG Gel Shift Kit (Roche) with minor modifications, salt and pH not stated, probe stock ~0.4 ng/ul, 20 min at 30 C, 6% DNA retardation gel, recombinant protein, residues 1-298, protein details: N-terminal 6xHis (pET-28b), label: DIG (ddUTP-11-DIG), probe letters rebuilt from the primers and the genome

| Sequence | binding result |
| --- | --- |
| AGCAGCAACAACAGTATTGATAGTTTTCATAATTAATCTCTCGCAGGTGATTTTTGTATAAGTGACGTTGTTTCGTCGATGTGATGAGTATCACGTTTTTTTTCGAGAGATAAAATCGAAGAGAATTGACCGCCTTGTTCAAATAAATTGATTGATATCTAACATACTGATAATCCATTTATTTGTTGAACTTATGGACTTGTTTTATGCAGCGTGGCAGTCACGACAGCGTTAAAGGCACGGAATGCCACGCAAAATACAAATTATACTCGCTATACATCCCGCCAGTTGTAGTTAACGTAACTGGCTGTCTTTCGAACCTCTGCGATTATATC (double strand) [ybiJ promoter] | binds |
| ACATTCCTTCAGCTGCTAGTGCGGCAGGAAGCATTTCCATTAATGAGATGAGCAACATGATCCCCGCCGCAAAACCTAGCGAAAACGCCAGTAAGCGGTTCGAGGGTTTTTGCCCGAGAACGCCGAGAAACGCGCCAATAAACGTGGCTGCCCCCGCCAGTATGGTCAGAATGAGAGGTACTGACATCGACAACTCCTTATAAATCTTCACCTTCAGGCAGATCGTCAAAATAACTGATGATCATCATCATTGTTATCCGGGTTCTTACTCCGCCGAACAAGCGTATTGTGAGGATATCAAAATGACACCTTTAGTTAAGGA (double strand) [ygiD promoter] | binds |
| CGGTCAGAGAAGAGATGAAGCCGGAGATGGGCGATTACGGGCGCGTTTATGATGCGTTGTATCAAACCATCACCAACGGTGCGCCAAATTACGTCAAGGAATCTGAAGTTCTTACCAATCTGGAAATCCTTGAACGAGGATTTGAGCAAGCCTCTCCCTCCACAGTGACTCTCGCGAAGTAAGTTTGATGGCCCCTCGAATAGTTCAATTTTTTTGAACAGAGGGGTCAATTTTCACCCTCTATCATCCCAGGCGGATCGGGTCCACACTAAGCCCATCGAAATCATTCAGGGGGCGAATAAAAATGATCTACTTACGCAAAGCAAATGA (double strand) [yhhW promoter] | binds |
| ACTGGTTTGTCAGCGAATAATATGCAGTGATTTTTGTTTTTGCCGGGTCGCCCCGGCTTTTTTATTTTACTTACAAATTTCGAGTACAAAATTTCTACACTTCCTCAAAATAATTGCACAATATGCTAAAAAAATATGAATGACATGCTGTTTTATTGTTCATATAAATCTTAAAAGCAAAAATTTATCTGTTCCCCCCTTTAAAAATTCGGTGAATACCCTTACTTATTGGTATACTGAAGTTGCTTCAGATAAAAACGCATTGAACCTCGAATAACGTTGTCTAGTAACACGAATTAGGGGGCCATGATGGAAAAAAATAATGAAGTCATTCAGA (double strand) [yceP promoter] | binds |
| GCAGTTCGGGTAGTAATCATAATTCTTGACCTCTCTTTACTTCCTTTTATGGTAAGGGGCTGGACGCTACATTGTTAGCCAGATATTCTGCCCGGTATGTTCAAATTTCCTGAATGAGAACGAAATGGCCAAAGAAAGGGCATTAACGCTGGAAGCACTACGGGTTATGGATGCGATCGATCGCCGGGGCAGTTTTGCGGCGGCGGCGGATGAGCTGGGACGCGTGCCTTCCGCACTTAGCTACACCATGCAAAAACTGGAAGAAGAGCTGGATGTGGTGCTGTTTGACCGCTCGGGCCATCGTACCAAATTCACCAATG (double strand) [yhaK promoter] | binds |
| TGGATCTTTCCGCCAGTCGTCGTGAATGGCTGGAGGCAACAGGCGCTTACGATCGTCGCTGGAATATGCTGCTAAGTCTGCGCTCCTGGGCGCTGGTAGGCAGTAGCGTGATGGCGATCTGGACGATTCGCCATCCTAATATGCTGGTCCGCTGGGCCAGACGCGGTTTTGGCGTATGGAGCGCCTGGCGTCTGGTGAAAACGACCCTCAAGCAGCAACAACTTCGCGGTTAACTTCCCTCTGGCCGGAGCCATTCCGGCCTTATCCCTCAAATTTTTTGAAGATTTTTGACAGTTTTCCTTGCTAACATTCATCATTCACCACGTTTATG (double strand) [yqjF promoter] | binds |

For at least one entry, the source does not settle the construct or the ends of the probe.
